# Measured values reported in PubChem BioAssay (EPA / NIEHS).
# Amino acid sequences for entries named in this document (tags omitted). A change or cut given only in a name is not applied to a line headed by its entry.
# UniProt P47900: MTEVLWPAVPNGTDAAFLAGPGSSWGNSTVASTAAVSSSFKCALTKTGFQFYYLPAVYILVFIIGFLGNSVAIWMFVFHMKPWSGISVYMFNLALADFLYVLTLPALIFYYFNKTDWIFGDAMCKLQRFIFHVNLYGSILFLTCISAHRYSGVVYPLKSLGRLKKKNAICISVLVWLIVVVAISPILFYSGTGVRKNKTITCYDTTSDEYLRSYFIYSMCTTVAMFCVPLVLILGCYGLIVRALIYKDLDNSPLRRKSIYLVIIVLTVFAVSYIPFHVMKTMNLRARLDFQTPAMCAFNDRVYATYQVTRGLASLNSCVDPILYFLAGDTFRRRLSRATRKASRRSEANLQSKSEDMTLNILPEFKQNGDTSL
# UniProt P08219: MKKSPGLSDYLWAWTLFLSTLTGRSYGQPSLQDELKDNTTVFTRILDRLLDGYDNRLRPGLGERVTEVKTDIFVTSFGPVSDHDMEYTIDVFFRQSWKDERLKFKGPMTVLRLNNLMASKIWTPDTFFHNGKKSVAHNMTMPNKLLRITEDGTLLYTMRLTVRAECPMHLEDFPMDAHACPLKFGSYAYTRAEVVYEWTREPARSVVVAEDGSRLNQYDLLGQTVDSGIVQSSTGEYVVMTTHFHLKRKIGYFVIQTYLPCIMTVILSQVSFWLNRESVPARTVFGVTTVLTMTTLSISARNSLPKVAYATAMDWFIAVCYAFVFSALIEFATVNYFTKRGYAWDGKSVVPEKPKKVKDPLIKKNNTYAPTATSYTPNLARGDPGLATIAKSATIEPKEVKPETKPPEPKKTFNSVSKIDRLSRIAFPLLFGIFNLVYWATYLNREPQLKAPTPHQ
# UniProt P10276, whole entry, looked up: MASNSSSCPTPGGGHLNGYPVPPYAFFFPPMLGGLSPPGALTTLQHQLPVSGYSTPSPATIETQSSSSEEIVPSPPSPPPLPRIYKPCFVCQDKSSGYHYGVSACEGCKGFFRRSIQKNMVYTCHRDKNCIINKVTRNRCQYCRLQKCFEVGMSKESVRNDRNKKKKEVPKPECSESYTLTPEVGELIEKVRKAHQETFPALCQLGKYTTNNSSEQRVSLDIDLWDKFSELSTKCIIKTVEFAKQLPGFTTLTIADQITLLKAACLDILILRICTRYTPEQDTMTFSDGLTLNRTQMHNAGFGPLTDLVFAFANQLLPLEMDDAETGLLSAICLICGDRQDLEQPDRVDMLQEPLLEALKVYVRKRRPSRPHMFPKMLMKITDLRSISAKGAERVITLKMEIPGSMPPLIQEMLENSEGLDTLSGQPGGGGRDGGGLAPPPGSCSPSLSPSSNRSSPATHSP
# UniProt P37238, whole entry, looked up: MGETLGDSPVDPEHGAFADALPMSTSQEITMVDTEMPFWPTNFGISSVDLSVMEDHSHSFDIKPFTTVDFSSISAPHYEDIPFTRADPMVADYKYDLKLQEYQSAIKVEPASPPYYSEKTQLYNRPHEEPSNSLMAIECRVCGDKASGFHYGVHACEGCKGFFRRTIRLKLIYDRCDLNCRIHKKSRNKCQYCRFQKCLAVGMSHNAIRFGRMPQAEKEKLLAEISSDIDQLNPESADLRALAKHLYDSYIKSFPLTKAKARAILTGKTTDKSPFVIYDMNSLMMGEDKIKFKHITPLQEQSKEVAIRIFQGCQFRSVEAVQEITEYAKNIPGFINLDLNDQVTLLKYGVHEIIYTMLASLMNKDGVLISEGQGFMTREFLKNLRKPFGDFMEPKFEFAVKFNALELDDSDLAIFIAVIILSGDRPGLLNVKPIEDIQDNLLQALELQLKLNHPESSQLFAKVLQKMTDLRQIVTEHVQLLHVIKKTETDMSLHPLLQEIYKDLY
# UniProt P08172, whole entry, looked up: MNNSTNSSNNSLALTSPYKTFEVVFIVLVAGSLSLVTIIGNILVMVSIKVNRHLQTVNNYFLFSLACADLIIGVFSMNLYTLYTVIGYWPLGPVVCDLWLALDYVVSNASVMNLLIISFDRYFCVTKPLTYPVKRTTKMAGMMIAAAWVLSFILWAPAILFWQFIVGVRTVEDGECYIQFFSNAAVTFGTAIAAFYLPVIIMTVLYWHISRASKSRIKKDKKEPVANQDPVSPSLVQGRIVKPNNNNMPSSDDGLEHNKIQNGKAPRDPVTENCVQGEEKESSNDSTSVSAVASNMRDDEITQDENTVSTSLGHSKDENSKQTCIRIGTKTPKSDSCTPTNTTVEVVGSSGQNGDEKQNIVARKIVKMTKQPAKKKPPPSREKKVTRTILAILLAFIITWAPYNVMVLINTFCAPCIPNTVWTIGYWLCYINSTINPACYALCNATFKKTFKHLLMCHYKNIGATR
# UniProt P27361, whole entry, looked up: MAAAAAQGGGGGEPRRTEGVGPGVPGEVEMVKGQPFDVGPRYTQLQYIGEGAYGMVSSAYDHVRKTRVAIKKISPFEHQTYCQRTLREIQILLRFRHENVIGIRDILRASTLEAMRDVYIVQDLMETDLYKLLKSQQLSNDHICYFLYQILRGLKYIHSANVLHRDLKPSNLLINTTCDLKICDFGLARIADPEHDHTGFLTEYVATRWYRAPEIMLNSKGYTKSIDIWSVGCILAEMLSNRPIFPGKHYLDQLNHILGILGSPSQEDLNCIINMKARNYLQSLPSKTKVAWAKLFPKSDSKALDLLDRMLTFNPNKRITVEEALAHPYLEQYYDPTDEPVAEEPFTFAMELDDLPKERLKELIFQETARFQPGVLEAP
# UniProt Q15678: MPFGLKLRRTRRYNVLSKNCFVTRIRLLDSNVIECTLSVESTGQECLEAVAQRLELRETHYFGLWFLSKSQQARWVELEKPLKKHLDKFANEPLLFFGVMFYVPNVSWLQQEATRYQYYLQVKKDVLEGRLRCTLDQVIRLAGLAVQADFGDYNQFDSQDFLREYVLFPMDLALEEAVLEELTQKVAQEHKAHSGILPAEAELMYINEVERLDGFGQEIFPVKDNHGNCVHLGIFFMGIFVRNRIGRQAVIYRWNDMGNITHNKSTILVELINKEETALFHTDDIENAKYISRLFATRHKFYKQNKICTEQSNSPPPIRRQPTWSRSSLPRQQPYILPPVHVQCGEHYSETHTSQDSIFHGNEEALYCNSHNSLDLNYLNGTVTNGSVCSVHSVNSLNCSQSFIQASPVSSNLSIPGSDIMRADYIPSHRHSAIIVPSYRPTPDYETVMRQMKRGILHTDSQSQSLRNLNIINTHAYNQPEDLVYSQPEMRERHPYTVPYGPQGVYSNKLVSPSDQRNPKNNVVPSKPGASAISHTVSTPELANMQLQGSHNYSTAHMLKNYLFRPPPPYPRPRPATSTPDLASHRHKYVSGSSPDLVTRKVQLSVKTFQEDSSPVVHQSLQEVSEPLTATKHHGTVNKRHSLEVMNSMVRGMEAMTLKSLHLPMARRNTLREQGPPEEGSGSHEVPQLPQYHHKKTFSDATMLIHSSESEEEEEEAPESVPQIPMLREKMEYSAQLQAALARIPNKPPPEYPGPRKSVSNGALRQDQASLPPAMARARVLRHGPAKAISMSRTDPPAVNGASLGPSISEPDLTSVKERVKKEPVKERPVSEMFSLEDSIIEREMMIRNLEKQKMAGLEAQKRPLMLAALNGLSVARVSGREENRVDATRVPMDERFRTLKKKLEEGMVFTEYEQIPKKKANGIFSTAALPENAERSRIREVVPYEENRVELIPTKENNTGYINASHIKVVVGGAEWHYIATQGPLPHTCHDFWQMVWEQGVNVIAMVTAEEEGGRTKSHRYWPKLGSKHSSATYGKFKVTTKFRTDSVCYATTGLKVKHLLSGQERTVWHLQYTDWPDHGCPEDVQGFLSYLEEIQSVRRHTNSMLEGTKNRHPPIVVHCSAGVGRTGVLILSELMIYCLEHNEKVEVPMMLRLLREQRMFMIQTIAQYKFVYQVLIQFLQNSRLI
# UniProt P21452, whole entry, looked up: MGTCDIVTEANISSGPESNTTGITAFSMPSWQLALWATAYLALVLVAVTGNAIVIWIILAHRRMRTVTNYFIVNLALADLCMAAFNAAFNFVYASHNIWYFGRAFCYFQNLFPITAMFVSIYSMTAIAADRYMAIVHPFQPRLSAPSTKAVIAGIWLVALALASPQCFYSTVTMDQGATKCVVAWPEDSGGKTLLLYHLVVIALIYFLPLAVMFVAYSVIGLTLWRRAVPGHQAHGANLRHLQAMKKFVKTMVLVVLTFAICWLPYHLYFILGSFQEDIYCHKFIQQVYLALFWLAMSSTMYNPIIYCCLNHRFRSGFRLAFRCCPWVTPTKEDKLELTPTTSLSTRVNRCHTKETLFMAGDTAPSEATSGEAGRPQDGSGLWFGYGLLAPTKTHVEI
# UniProt P28223, whole entry, looked up: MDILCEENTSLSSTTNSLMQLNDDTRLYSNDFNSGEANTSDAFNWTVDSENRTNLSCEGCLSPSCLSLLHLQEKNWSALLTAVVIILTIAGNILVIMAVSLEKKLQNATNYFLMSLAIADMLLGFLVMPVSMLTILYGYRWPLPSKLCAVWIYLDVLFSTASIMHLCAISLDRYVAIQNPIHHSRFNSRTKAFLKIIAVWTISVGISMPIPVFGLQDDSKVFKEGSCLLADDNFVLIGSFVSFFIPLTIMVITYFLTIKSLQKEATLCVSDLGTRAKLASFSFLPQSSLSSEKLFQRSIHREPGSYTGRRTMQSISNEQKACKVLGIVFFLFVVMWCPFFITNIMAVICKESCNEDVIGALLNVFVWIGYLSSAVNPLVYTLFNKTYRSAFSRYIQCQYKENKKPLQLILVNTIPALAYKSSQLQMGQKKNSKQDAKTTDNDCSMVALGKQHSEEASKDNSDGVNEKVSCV
# UniProt Q9NTG7: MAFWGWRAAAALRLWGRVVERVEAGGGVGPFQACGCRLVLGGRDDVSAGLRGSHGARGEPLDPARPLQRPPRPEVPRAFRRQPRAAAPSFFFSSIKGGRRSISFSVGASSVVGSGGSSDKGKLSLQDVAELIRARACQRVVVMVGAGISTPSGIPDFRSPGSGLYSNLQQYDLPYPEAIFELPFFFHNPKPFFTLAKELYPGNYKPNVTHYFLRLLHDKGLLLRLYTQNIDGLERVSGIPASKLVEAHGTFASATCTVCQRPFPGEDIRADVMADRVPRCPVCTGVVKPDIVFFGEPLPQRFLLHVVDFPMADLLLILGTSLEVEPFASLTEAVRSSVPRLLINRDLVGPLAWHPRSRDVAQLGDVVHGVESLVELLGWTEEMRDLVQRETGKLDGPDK
# UniProt P04629: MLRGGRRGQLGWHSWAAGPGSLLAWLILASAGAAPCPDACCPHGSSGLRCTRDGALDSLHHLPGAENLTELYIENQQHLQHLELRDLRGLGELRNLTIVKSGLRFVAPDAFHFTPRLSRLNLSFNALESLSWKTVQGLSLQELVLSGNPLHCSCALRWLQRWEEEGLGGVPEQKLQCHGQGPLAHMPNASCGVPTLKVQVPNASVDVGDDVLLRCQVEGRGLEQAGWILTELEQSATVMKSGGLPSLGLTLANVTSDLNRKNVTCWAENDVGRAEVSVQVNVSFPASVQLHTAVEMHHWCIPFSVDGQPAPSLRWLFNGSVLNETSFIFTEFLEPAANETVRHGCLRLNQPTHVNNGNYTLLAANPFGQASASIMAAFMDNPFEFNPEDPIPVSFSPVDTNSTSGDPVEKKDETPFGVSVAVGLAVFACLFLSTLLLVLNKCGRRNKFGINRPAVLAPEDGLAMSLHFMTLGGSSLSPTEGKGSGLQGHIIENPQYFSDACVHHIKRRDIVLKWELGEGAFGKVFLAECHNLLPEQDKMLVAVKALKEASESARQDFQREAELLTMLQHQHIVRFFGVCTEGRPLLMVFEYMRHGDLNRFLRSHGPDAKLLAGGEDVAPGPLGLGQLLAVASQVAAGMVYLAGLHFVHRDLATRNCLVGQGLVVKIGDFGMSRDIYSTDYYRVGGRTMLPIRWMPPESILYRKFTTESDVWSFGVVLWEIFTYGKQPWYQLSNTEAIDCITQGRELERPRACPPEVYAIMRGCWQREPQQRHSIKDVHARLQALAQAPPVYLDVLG
# Values joined by “and” are separate entries in the source; they are usually repeats but may differ in a detail not shown here. Equal entries are not always repeated. The inconclusive results got no clear call from the source; some entries with a clear call stand among them for comparison. For some assays here: Where the call is inconclusive, the potency comes from a doubtful curve fit. A structure can be active in one record and inactive in another. Active and inactive are the calls of the source. The calls were made as follows: active = hit-call score of the fitted dose curve at least 0.9, where 1 is the maximum; inconclusive = response in the unintended direction; inactive = score below 0.9.
# Experiments:
# [1] = molecular target: human Purinergic Receptor P2Y, P2RY1 (gene 5028) (UniProt P47900); assay: NVS_GPCR_hPY2: NovaScreen (NVS) G Protein-Coupled Receptor Assay for human Purinergic Receptor P2Y (AID 2283281)
# How it was run: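 Filtration scintillation readout of radioligand displacement on U937 extract, measured 1 h post-dosing. Single 25 uM duplicate screen, then singleton concentration series to 50 uM for chemicals passing threshold; DMSO as baseline.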
# [2] = molecular target: bovine Gamma-Aminobutyric Acid Type A Receptor Agonist (GABAR Agonist), GABRA1 (gene 780973) (UniProt P08219); assay: NVS_LGIC_bGABAR_Agonist: NovaScreen (NVS) Ligand-Gated Ion Channel Assay for bovine Gamma-Aminobutyric Acid Type A Receptor Agonist (GABAR Agonist) (AID 2283338)
# How it was run: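 Radioligand binding to bovine cerebellar membranes in agonist format, read by filter-based scintillation counting after 1 h. Primary screen in duplicate at 25 uM, with actives followed in concentration series. Gain of signal versus DMSO.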
# [3] = molecular target: Retinoic acid receptor alpha (Homo sapiens) (UniProt P10276); assay: NVS_NR_hRAR_Antagonist: NovaScreen (NVS) Nuclear Receptor Binding Assay for human Retinoic Acid Alpha Receptor Antagonism (RAR) (AID 2283358)
# How it was run: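 RARalpha antagonism was read by TR-FRET as loss of binding signal versus DMSO, 2 h after chemical addition, in a biochemical format. Single-concentration duplicates (25 uM) were run first, and actives were retested in concentration series.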
# [4] = molecular target: Retinoic acid receptor alpha (Homo sapiens) (UniProt P10276); assay: NVS_NR_hRARa_Agonist: NovaScreen (NVS) Nuclear Receptor Binding Assay for human Retinoic Acid Alpha Receptor Agonism (RAR) (AID 2283361)
# How it was run: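 Agonist-mode TR-FRET binding format using extracted protein, measured at 2 h post-dosing. Initial duplicate single-point screen at 25 uM preceded concentration series for actives; activity was normalized to DMSO baseline.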
# [5] = Tanguay_ZF_120hpf_PFIN_legacy: (Legacy) Oregon State University Tanguay Lab 120 Hour Post-fertilization zebrafish Assay for Pectoral Fin Malformation (AID 2283648);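 also: each larva judged yes or no for fin defect by brightfield with dead larvae skipped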
# How it was run: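 Pectoral fin malformation was recorded as a binary endpoint at 120 hpf in wild-type Tropical 5D larvae, which had been dechorionated and exposed statically from 6 hpf at 28C in 0.64% DMSO. Dead embryos were excluded.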
# [6] = molecular target: mouse Peroxisome Proliferator-activated Receptor gamma (PPARg), Pparg (gene 19016) (UniProt P37238); assay: ATG_mPPARg_XSP1: Attagene TRANS-FACTORIAL Multi-Species (XSP1) HepG2 Assay for mouse Peroxisome Proliferator-activated Receptor gamma (PPARg) (AID 2283802)
# How it was run: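 Readout is reporter mRNA induction, measured by RT-PCR with 6-FAM labelling, HpaI digestion and capillary electrophoresis, 24 h post-dose relative to DMSO. Transient multi-reporter transfection of human HepG2 with mouse PPARg–GAL4 fusion; 3 nM 6-alpha-fluorotestosterone included.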
# [7] = molecular target: mouse Peroxisome Proliferator-activated Receptor gamma (PPARg), Pparg (gene 19016) (UniProt P37238); assay: ATG_mPPARg_XSP2: Attagene TRANS-FACTORIAL Multi-Species (XSP2) HepG2 Assay for mouse Peroxisome Proliferator-activated Receptor gamma (PPARg) (AID 2283830);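 also: hits are gains in reporter mRNA above DMSO so AC50 marks activation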
# How it was run: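 Multiplexed TRANS reporter readout: after 24 h chemical exposure of transfected HepG2 cells (with 3 nM 6-alpha-fluorotestosterone, 1.5 nM norgestrel present), RNA reverse-transcribed, amplified, 6-FAM-labelled and resolved by capillary electrophoresis; mouse PPARg-Gal4 induction scored against DMSO.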
# [8] = molecular target: Muscarinic acetylcholine receptor M2 (Homo sapiens) (UniProt P08172); assay: NVS_GPCR_hM2: NovaScreen (NVS) G Protein-Coupled Receptor Assay for human Muscarinic, M2 Receptor (AID 2283273)
# How it was run: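 CHO-expressed human M2 receptor preparation, competitive displacement of a radioligand read by filter-based scintillation counting after 1 h. Single 25 uM duplicate screen, then concentration-response follow-up of actives; DMSO baseline.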
# [9] = Tanguay_ZF_120hpf_PE_legacy: (Legacy) Oregon State University Tanguay Lab 120 Hour Post-fertilization zebrafish Assay for Pericardial Edema (AID 2283640);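 as to AC50: potency for increased incidence of pericardial edema versus DMSO baseline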
# How it was run: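 Tropical 5D wild-type zebrafish embryos were exposed statically to 120 hpf at 28C, sealed and foil-covered, in 0.64% DMSO final. Pericardial edema was scored present/absent by brightfield microscopy; dead embryos were not scored.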
# [10] = STM_H9_OrnCyssISnorm_ratio: Stemina devTOX quickPredict H9 human embryonic stem cell (hESC)-based Assay for Ornithine (ORN):Cystine (CYSS) Ratio (AID 2283714)
# How it was run: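 Ratio of internal-standard-normalized ornithine to cystine, measured by UPLC-HRMS in spent media from the last 24 h. H9 cells kept pluripotent, dosed 72 h with daily media and compound renewal; DMSO 0.1% serves as baseline.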
# [11] = molecular target: Mitogen-activated protein kinase 3 (Homo sapiens) (UniProt P27361); assay: NVS_ENZ_hMAPK3: NovaScreen (NVS) Enzymatic Assay for human Mitogen-Activated Protein Kinase 3 (MAPK 3) (AID 2283177)
# How it was run: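 Chemicals were first tested in duplicate at 25 uM, with hits re-run as concentration series (max 50 uM). Recombinant enzyme activity, measured 1 h post-dose in a cell-free format, was read by fluorescence/mobility shift relative to DMSO.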
# [12] = molecular target: Tyrosine-protein phosphatase non-receptor type 14 (Homo sapiens) (UniProt Q15678); assay: NVS_ENZ_hPTPN14: NovaScreen (NVS) Enzymatic Assay for human Protein Tyrosine Phosphatase Non-receptor Type 14 (PTPN14) (AID 2283206)
# How it was run: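 Fluorescent substrate turnover by recombinant human PTPN14 was measured 0.5 h after compound addition, with substrate and product separated by mobility shift. Single-point screening at 25 uM, then concentration-response up to 50 uM for chemicals meeting threshold (e.g., 30% inhibition).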
# [13] = molecular target: human Neurokinin, NK2 Receptor, TACR2 (gene 6865) (UniProt P21452); assay: NVS_GPCR_hNK2: NovaScreen (NVS) G Protein-Coupled Receptor Assay for human Neurokinin, NK2 Receptor (AID 2283278);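 also: actives reduce bound radioligand signal relative to DMSO baseline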
# How it was run: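 CHO-derived membrane protein, radioligand displacement, filter scintillation read at 4 h post-dose. Single-point 25 uM in duplicate, then concentration series for actives; DMSO as negative control.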
# [14] = Tanguay_ZF_120hpf_TRUN_legacy: (Legacy) Oregon State University Tanguay Lab 120 Hour Post-fertilization zebrafish Assay for Truncated Body (AID 2283655)
# How it was run: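 Tropical 5D wild-type embryos, dechorionated with pronase at 4 hpf, were placed singly in wells at 6 hpf and statically exposed at 28C until 120 hpf, final DMSO 0.64%. Truncated body was scored present/absent by brightfield microscopy.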
# [15] = test system: zebrafish Androgen Receptor (AR), gene 100005148; assay: ATG_zfAR_XSP1: Attagene TRANS-FACTORIAL Multi-Species (XSP1) HepG2 Assay for zebrafish Androgen Receptor (AR) (AID 2283771)
# How it was run: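 Gain-of-signal versus DMSO was measured as reporter transcripts quantified by RT-PCR, fluorescent labelling and capillary electrophoresis after 24 h chemical exposure. The cells were HepG2 expressing a chimeric zebrafish AR-GAL4, co-stimulated with 3 nM 6-alpha-fluorotestosterone.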
# [16] = test system: zebrafish Peroxisome Proliferator-activated Receptor gamma (PPARg), gene 557037; assay: ATG_zfPPARg_XSP1: Attagene TRANS-FACTORIAL Multi-Species (XSP1) HepG2 Assay for zebrafish Peroxisome Proliferator-activated Receptor gamma (PPARg) (AID 2283801)
# How it was run: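 Trans-activation readout of chimeric zebrafish PPARg–GAL4 in transiently transfected human HepG2 cells, 24 h chemical exposure (medium includes 3 nM 6-alpha-fluorotestosterone). Reporter transcripts measured by RT-PCR and capillary electrophoresis, fitted as gain over DMSO.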
# [17] = molecular target: human Serotonin, 5-Hydroxytryptamine Receptor 2A (5HT2A), HTR2A (gene 3356) (UniProt P28223); assay: NVS_GPCR_h5HT2A: NovaScreen (NVS) G Protein-Coupled Receptor Assay for human Serotonin, 5-Hydroxytryptamine Receptor 2A (5HT2A) (AID 2283249)
# How it was run: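 Radioligand displacement on human cortex tissue extract, counted by filtration and scintillation 1.5 h post-dosing. Initial single-concentration screen at 25 uM in duplicate, concentration series in follow-up; DMSO as baseline.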
# [18] = molecular target: human Sirtuin 3 (SIRT3), SIRT3 (gene 23410) (UniProt Q9NTG7); assay: NVS_ENZ_hSIRT3: NovaScreen (NVS) Enzymatic Assay for human Sirtuin 3 (SIRT3) (AID 2283222)
# How it was run: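 Cell-free enzyme assay with recombinant protein and fluorescent substrate, product separated by electrophoretic mobility shift; read 1 hour after dosing. Screened in duplicate at 25 uM, then singleton concentration-response up to 50 uM; loss of signal versus DMSO.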
# [19] = molecular target: human Tropomyosin Receptor Kinase A (TRKA), NTRK1 (gene 4914) (UniProt P04629); assay: NVS_ENZ_hTrkA: NovaScreen (NVS) Enzymatic Assay for human Tropomyosin Receptor Kinase A (TRKA) (AID 2283224)
# How it was run: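 Compounds were screened at 25 uM in duplicate, then concentration series to a 50 uM top for those meeting threshold (e.g. 30% inhibition). Enzyme was recombinant human TrkA, incubated 1 h. Product formation was quantified by fluorescence after mobility-shift separation.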
# [20] = test system: bovine Histamine 1 Receptor (H1), gene 281231; assay: NVS_GPCR_bH1: NovaScreen (NVS) G Protein-Coupled Receptor Assay for bovine Histamine 1 Receptor (H1) (AID 2283246)
# How it was run: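 Hits from a 25 uM duplicate primary screen were retested in concentration series (top 50 uM); binding measured as scintillation-counted displacement of radioligand from bovine cerebellar membranes after 1 h, normalised to DMSO.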
compound,measurement,setting,value
CCCCC=O,outcome,[1],inactive
CC/C(=C(\c1ccccc1)c1ccc(OCCN(C)C)cc1)c1ccccc1,outcome,[2],inactive
same,AC50,[3],inconclusive: 6.13 µM and inconclusive: 151 nM
same,outcome,[3],inactive
same,AC50,[4],inconclusive: 25 µM
same,AC50,[5],inconclusive: 3.82 µM
same,AC50,[6],inconclusive: 5.55 µM
same,AC50,[7],inconclusive: 0.0172 µM
CCCCN(CCCC)C(=O)N(CCCC)CCCC,outcome,[8],inactive
N[C@@H](Cc1c[nH]c2ccccc12)C(=O)O,outcome,[2],inactive
same,AC50,[9],inconclusive: 2.03 µM
same,outcome,[5],inactive
same,AC50,[10],inconclusive: 10 µM
CC(=O)[C@@]1(O)CC[C@H]2[C@@H]3CCC4=CC(=O)CC[C@]4(C)[C@H]3CC[C@@]21C,AC50,[4],inconclusive: 25 µM
same,outcome,[4],inactive
CC/C(=C(/CC)c1ccc(O)cc1)c1ccc(O)cc1,outcome,[11],inactive
same,outcome,[12],inactive
same,AC50,[13],inconclusive: 1.22 µM
same,outcome,[9],inactive
same,AC50,[14],inconclusive: 17.5 µM
same,AC50,[15],inconclusive: 0.0261 µM
same,AC50,[16],inconclusive: 0.0257 µM
C[C@]12CC[C@@H]3c4ccc(O)cc4CC[C@H]3[C@@H]1C[C@@H](O)[C@@H]2O,AC50,[15],inconclusive: 0.000504 µM
same,AC50,[16],inconclusive: 0.1 µM
same,AC50,[6],inconclusive: 0.000599 µM
same,AC50,[7],inconclusive: 0.1 µM
O=C(O)CC(O)C(=O)O (centres undefined),AC50,[17],inconclusive: 0.199 µM
same,AC50,[13],inconclusive: 5.61 µM
same,outcome,[14],inactive
S=C(S)NCCNC(=S)S.[Mn+2].[S-]C([S-])=NCCN=C([S-])[S-].[Zn+2],AC50,[11],inconclusive: 12.5 µM
same,AC50,[12],active: 25 µM
same,AC50,[18],inconclusive: 76 nM and active: 25 µM
same,outcome,[18],inactive
same,AC50,[19],inconclusive: 315 nM and active: 22.1 µM
same,AC50,[20],inconclusive: 6.71 µM
same,AC50,[17],inconclusive: 12.5 µM
same,outcome,[8],inactive
same,AC50,[2],inconclusive: 0.0379 µM
CC(N)=O,outcome,[17],inactive
same,AC50,[14],inconclusive: 0.127 µM
O=C(O)c1cc(N=Nc2ccc(S(=O)(=O)Nc3ccccn3)cc2)ccc1O,AC50,[11],inconclusive: 4.08 µM
same,AC50,[19],inconclusive: 1.79 µM
same,AC50,[3],inconclusive: 1.9 µM
S=C([S-])NCCNC(=S)[S-].[Mn+2],AC50,[12],active: 13.8 µM
same,AC50,[18],active: 7.6 µM
same,AC50,[19],inconclusive: 6.48 µM
same,AC50,[20],inconclusive: 25 µM
same,AC50,[8],inconclusive: 25 µM
same,outcome,[10],inactive
C[C@]12CC[C@@H]3c4ccc(O)cc4CC[C@H]3[C@@H]1CCC2=O,AC50,[15],inconclusive: 0.00125 µM
same,AC50,[16],inconclusive: 0.1 µM
same,AC50,[6],inconclusive: 0.0269 µM
same,AC50,[7],inconclusive: 0.1 µM
O=C(CCCN1CCC(O)(c2ccc(Cl)cc2)CC1)c1ccc(F)cc1,AC50,[20],active: 10.5 µM
same,outcome,[13],inactive
same,AC50,[1],inconclusive: 41.8 µM
same,AC50,[9],active: 3.98 µM
same,AC50,[5],active: 5.92 µM
same,outcome,[10],inactive

# In a second layout: entries from further up
compound | measurement | setting | value
CC/C(=C(/CC)c1ccc(O)cc1)c1ccc(O)cc1 | AC50 | [16] | inconclusive: 0.0257 µM
O=C(O)c1cc(N=Nc2ccc(S(=O)(=O)Nc3ccccn3)cc2)ccc1O | AC50 | [3] | inconclusive: 1.9 µM
